We go through 33 molecules from PubChem BioAssay AID256 (DTP/NCI, 2004).

The subject of the experiment is CD2F1 mice, L1210 leukemia ip, survival T/C. Put plainly: NCI In Vivo Anticancer Drug Screen. Data for tumor model L1210 Leukemia (intraperitoneal) in CD2F1 (CDF1) mice. The settings on record: higher T/C = longer survival. An outline of the steps: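 In this screen, transplantable tumors were grown in mice given either the compound or its vehicle. Results were expressed as the treated measurement relative to the control measurement.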

[1] abbreviates: T/C endpoint: mean survival time, dose: 100.0 mg/kg/injection, schedule: Q04DX003 (ip), vehicle: saline with Tween-80.
[2] abbreviates: T/C endpoint: mean survival time, dose: 200.0 mg/kg/injection, schedule: Q04DX003 (ip), vehicle: saline with Tween-80.
Setting [3] is: T/C endpoint: mean survival time, dose: 400.0 mg/kg/injection, schedule: Q04DX003 (ip), vehicle: saline with Tween-80.
Where [4] appears, read: T/C endpoint: mean survival time, dose: 150.0 mg/kg/injection, schedule: Q01DX001 (ip), vehicle: saline.
The mark [5] stands for this setting: T/C endpoint: mean survival time, dose: 300.0 mg/kg/injection, schedule: Q01DX001 (ip), vehicle: saline.
[6] abbreviates: T/C endpoint: mean survival time, dose: 6.25 mg/kg/injection, schedule: Q01DX009 (ip), vehicle: saline.
[7] abbreviates: T/C endpoint: mean survival time, dose: 12.5 mg/kg/injection, schedule: Q01DX009 (ip), vehicle: saline.
The mark [8] stands for this setting: T/C endpoint: mean survival time, dose: 400.0 mg/kg/injection, schedule: Q01DX009 (ip), vehicle: saline with Tween-80.
The mark [9] stands for this setting: T/C endpoint: mean survival time, dose: 100.0 mg/kg/injection, schedule: Q01DX009 (ip), vehicle: saline with Tween-80.
The mark [10] stands for this setting: T/C endpoint: mean survival time, dose: 25.0 mg/kg/injection, schedule: Q01DX009 (ip), vehicle: saline with Tween-80.
Where [11] appears, read: T/C endpoint: median survival time, dose: 200.0 mg/kg/injection, schedule: Q01DX009 (ip), vehicle: saline.
Setting [12] is: T/C endpoint: mean survival time, dose: 50.0 mg/kg/injection, schedule: Q04DX003 (ip), vehicle: saline with Tween-80.
Where [13] appears, read: T/C endpoint: mean survival time, dose: 200.0 mg/kg/injection, schedule: Q01DX009 (ip), vehicle: saline with Tween-80.

The list does not hold the whole screen: it gathers tests that were run many times, whatever their T/C, doses with no T/C, and many T/C values between a quarter and a half above the control. Other doses and runs of a compound stand elsewhere. T/C is the treated group as % of the vehicle group. Some entries give survivors of the animals treated and no T/C: the source files T/C as zero there, which appears to mark a toxic dose or a test without result, not a measured value. Some survivor counts are full or nearly so, which does not show that the dose was tolerated: the source hardly ever lists a survival T/C far under the control, and the zero likely stands for such cases as well. Survivors were counted at the toxicity check, usually on the fifth day, unless a day is given; later deaths do not show. Schedule codes are those of the source, taken here to give the interval after Q, in days (D) or hours (H), and the number of doses after X. Some doses were run more than once; their values stand side by side, smallest first. For survival time, the PubChem record calls one and a half times the control and up active, and a quarter to a half above the control has no call in these data; cut-offs in other NCI protocols can differ. Some T/C values carry the count of animals alive at the toxicity check (mostly the fifth day); where none is given, no animal had died by that day.

With `O=C(C=C(C(F)(F)F)C(F)(F)F)c1cccc(C(F)(F)F)c1`, the survivor count under setting [1] is 5 of 6.

Consider `CCCCCCCCCCCCCCCC[N+]1([O-])CCOCC1`, for which the survivor count is 0 of 6 (T/C endpoint: mean survival time, dose: 100.0 mg/kg/injection, schedule: Q01DX009 (ip), vehicle: saline); 0 of 6 (T/C endpoint: mean survival time, dose: 200.0 mg/kg/injection, schedule: Q01DX009 (ip), vehicle: saline); 0 of 6 (T/C endpoint: mean survival time, dose: 400.0 mg/kg/injection, schedule: Q01DX009 (ip), vehicle: saline).

As for `CC(C)Cc1ccc(OC(=O)Nc2ccc(Cl)cc2)cc1`, the survivor count is, setting by setting: under setting [2], 6 of 6; under setting [3], 6 of 6.

With `CCCCCCCC/C=C\CCCCCCCC(=O)N1CC[N+](C)(C)CC1`, the survivor count is reported as 0 of 6 (T/C endpoint: mean survival time, dose: 75.0 mg/kg/injection, schedule: Q01DX001 (ip), vehicle: saline); 0 of 6 under setting [4]; 0 of 6 under setting [5].

`CCCCCCCCCCCCCCCC[N+]1(C)CCSCC1`: the T/C runs as follows: (T/C endpoint: mean survival time, dose: 1.56 mg/kg/injection, schedule: Q01DX009 (ip), vehicle: saline) 100, 101, 108, 122 % of control; (T/C endpoint: mean survival time, dose: 3.13 mg/kg/injection, schedule: Q01DX009 (ip), vehicle: saline) 90, 98, 98 [5 of 6 alive], 101, 102, 103, 114, 130 % of control; under setting [6], 96, 96 [5 of 6 alive], 98, 102, 107, 111 % of control; under setting [7], 98, 100 [4 of 6 alive], 100 % of control [5 of 6 alive]. For the same molecule, the survivor count under setting [6] is listed as 1 of 3; the survivor count under setting [7] was 0 of 6, 1 of 3, 2 of 3; the survivor count (T/C endpoint: mean survival time, dose: 12.5 mg/kg/injection, schedule: Q04DX002 (ip), vehicle: saline) is 1 of 3 and 3 of 6; the survivor count (T/C endpoint: mean survival time, dose: 25.0 mg/kg/injection, schedule: Q01DX009 (ip), vehicle: saline) was 0 of 6; the survivor count (T/C endpoint: mean survival time, dose: 25.0 mg/kg/injection, schedule: Q04DX002 (ip), vehicle: saline) was 0 of 3; the survivor count (T/C endpoint: mean survival time, dose: 50.0 mg/kg/injection, schedule: Q04DX002 (ip), vehicle: saline) is 2 of 3 and 5 of 6.

Consider `CCC(=O)Oc1ccc(/C=N/NC(N)=S)nc1`, for which the T/C was 126 % of control (T/C endpoint: mean survival time, dose: 400.0 mg/kg/injection, schedule: Q04DX002 (ip), vehicle: other); 134 % of control (T/C endpoint: mean survival time, dose: 800.0 mg/kg/injection, schedule: Q04DX002 (ip), vehicle: other); 130 % of control (T/C endpoint: mean survival time, dose: 900.0 mg/kg/injection, schedule: Q01DX001 (ip), vehicle: other).

Regarding `COc1cc([N+](=O)[O-])ccc1NC(=O)OC/C=C/c1ccccc1`, the survivor count under setting [8] is given as 6 of 6.

For the molecule `CN(C)C1C(CO)C(CO)C1(C)C` (centres undefined), the survivor count (T/C endpoint: mean survival time, dose: 800.0 mg/kg/injection, schedule: Q01DX001 (ip), vehicle: saline with Tween-80) is reported as 0 of 10.

In the case of `O=C(NNc1ccccc1)C(F)(F)F`, the survivor count runs as follows: under setting [9], 2 of 6; (T/C endpoint: mean survival time, dose: 200.0 mg/kg/injection, schedule: Q04DX003 (ip), vehicle: acetone) 4 of 6; (T/C endpoint: mean survival time, dose: 400.0 mg/kg/injection, schedule: Q04DX003 (ip), vehicle: acetone) 0 of 6.

As for `CCCCCCCCCCCCCCCc1ccc(C(=O)C[n+]2ccccc2)cc1`, the T/C under setting [10] was 127 % of control. The survivor count runs as follows: (T/C endpoint: mean survival time, dose: 50.0 mg/kg/injection, schedule: Q01DX009 (ip), vehicle: saline with Tween-80) 2 of 6; under setting [1], 6 of 6; under setting [2], 0 of 6; under setting [3], 0 of 6.

On to `C[CH2][Sn]([I])([CH2]C)[CH2]C`, for which the survivor count is, setting by setting: (T/C endpoint: mean survival time, dose: 12.5 mg/kg/injection, schedule: Q01DX009 (ip), vehicle: saline with Tween-80) 1 of 6; under setting [10], 0 of 6; (T/C endpoint: mean survival time, dose: 25.0 mg/kg/injection, schedule: Q04DX002 (ip), vehicle: saline with Tween-80) 0 of 3; (T/C endpoint: mean survival time, dose: 50.0 mg/kg/injection, schedule: Q04DX002 (ip), vehicle: saline with Tween-80) 0 of 3; (T/C endpoint: mean survival time, dose: 100.0 mg/kg/injection, schedule: Q04DX002 (ip), vehicle: saline with Tween-80) 0 of 3.

As to `CC1(C)N=C(N)N=C(N)N1c1ccc(OCCCc2ccccc2)c(N)c1`, the survivor count is listed as 5 of 6 under setting [1], 0 of 6 under setting [2] and 0 of 6 under setting [3].

For the molecule `CCCCCCCCCCCCCCCCCC[n+]1cccc(C(=O)c2ccccc2)c1`, under “T/C endpoint: mean survival time, dose: 37.5 mg/kg/injection, schedule: Q01DX001 (ip), vehicle: other”, the survivor count is 3 of 6.

On to `Clc1cccc(-c2nc3ccccc3c3ccccc23)c1`, for which the survivor count under setting [2] is on record as 6 of 6.

For the molecule `CCC1OC(OC)C=CC1=O` (centres undefined), the survivor count under setting [11] was 0 of 6.

For `CC(C(=O)c1ccccc1)C(N[N+](C)(C)C)c1ccccc1` (centres undefined), the survivor count runs as follows: under setting [12], 0 of 3; under setting [1], 0 of 3.

Consider `O=C1CC(c2ccc(Br)cc2)N(c2ccc([As](=O)(O)O)cc2)C1=O` (centres undefined), for which the survivor count (T/C endpoint: mean survival time, dose: 25.0 mg/kg/injection, schedule: Q01DX009 (ip), vehicle: Klucel (hydroxypropylcellulose) (HPC)) is 0 of 6.

Consider `Nc1nc(F)nc2c1ncn2C1CC(O)C(CO)O1` (centres undefined), for which the survivor count under setting [5] was 1 of 6.

Regarding `CNC(=O)NNC(=O)CNC(=O)Nc1cccc([N+](=O)[O-])c1`, the survivor count was 0 of 6 under setting [9], 0 of 6 under setting [13] and 0 of 6 under setting [8].

As for `Oc1ccc(CCl)c2cccnc12`, the survivor count under setting [11] is 2 of 6.

Turning to `CCOC(=O)c1c(O)c2c([nH]c1=O)CCc1ccccc1-2`, the survivor count is, setting by setting: (T/C endpoint: mean survival time, dose: 100.0 mg/kg/injection, schedule: Q01DX001 (ip), vehicle: saline with Tween-80) 6 of 6; (T/C endpoint: mean survival time, dose: 200.0 mg/kg/injection, schedule: Q01DX001 (ip), vehicle: saline with Tween-80) 6 of 6; (T/C endpoint: mean survival time, dose: 400.0 mg/kg/injection, schedule: Q01DX001 (ip), vehicle: saline with Tween-80) 6 of 6.

With `S=C1NC(/C=C/c2ccccc2)Nc2ccccc21` (centres undefined), the survivor count under setting [3] was 6 of 6.

`Cc1ccc(O[Si](C)(C)C)cc1`: the survivor count is recorded as 2 of 6 under setting [13] and 0 of 6 under setting [8].

As to `c1ccc(Oc2ccc(-c3ccc(Oc4ccccc4)cc3)cc2)cc1`, the survivor count under setting [1] was 6 of 6.

For the molecule `COc1ccc(OC)c(C(=O)C[n+]2ccccc2)c1`, the survivor count under setting [1] is listed as 6 of 6, the survivor count under setting [2] is 1 of 6 and the survivor count under setting [3] is listed as 1 of 6.

For `CN(C)C=Nc1ccc2c3c(cccc13)CC2`, the survivor count under setting [1] was 1 of 6, the survivor count under setting [2] is recorded as 0 of 6 and the survivor count under setting [3] is 0 of 6.

As for `COC(=O)C1C(=O)C(C(=O)OC)C(C)N(C)C1C` (centres undefined), the survivor count (T/C endpoint: mean survival time, dose: 75.0 mg/kg/injection, schedule: Q01DX001 (ip), vehicle: other) is reported as 1 of 6; the survivor count (T/C endpoint: mean survival time, dose: 150.0 mg/kg/injection, schedule: Q01DX001 (ip), vehicle: other) was 0 of 6; the survivor count (T/C endpoint: mean survival time, dose: 300.0 mg/kg/injection, schedule: Q01DX001 (ip), vehicle: other) is 0 of 6.

As for `CCC/C=C(\C#N)C(=O)OC`, the survivor count under setting [4] is given as 0 of 6 and the survivor count under setting [5] was 0 of 6.

For the molecule `CNCCNC1=C(Cl)C(=O)c2ccccc2C1=O`, the survivor count under setting [12] is listed as 0 of 6 and the survivor count under setting [1] is recorded as 0 of 6.

`c1ccc2ncccc2c1`: where the note is “T/C endpoint: mean survival time, dose: 400.0 mg/kg/injection, schedule: Q01DX009 (ip), vehicle: other”, the survivor count was 0 of 6.

On to `CC(=O)c1ccc[n+](CCc2c[nH]c3ccccc23)c1`, for which the survivor count is, setting by setting: under setting [1], 4 of 6; under setting [2], 0 of 6; under setting [3], 0 of 6.

`Fc1ccc(/C=N\N=C(N/N=C/c2ccc(F)cc2)N/N=C/c2ccc(F)cc2)cc1`: the survivor count is given as 1 of 3 under setting [1], 0 of 3 under setting [2] and 1 of 3 under setting [3].

Regarding `CCc1ccccc1NC(=O)/C=C/C(=O)O`, the survivor count under setting [2] is on record as 3 of 6.
